In paper PMC10497826:
Results are given in words; binding and its absence hold for the method and conditions named. In cells and extracts the contact can be indirect. Some binding calls cover weakened binding; strength is not graded here. Values belong to the molecule of their own block, whether it stands above or below them.

Chains of the proteins cited; added tags and fusions are not shown.
UniProt P10415: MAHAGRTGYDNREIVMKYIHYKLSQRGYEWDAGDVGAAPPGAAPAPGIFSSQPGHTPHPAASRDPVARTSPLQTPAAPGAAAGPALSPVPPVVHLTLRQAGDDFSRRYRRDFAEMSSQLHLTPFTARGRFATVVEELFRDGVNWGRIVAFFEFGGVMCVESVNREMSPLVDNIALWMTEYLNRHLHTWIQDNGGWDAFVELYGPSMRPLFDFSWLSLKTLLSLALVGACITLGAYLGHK
UniProt P46379: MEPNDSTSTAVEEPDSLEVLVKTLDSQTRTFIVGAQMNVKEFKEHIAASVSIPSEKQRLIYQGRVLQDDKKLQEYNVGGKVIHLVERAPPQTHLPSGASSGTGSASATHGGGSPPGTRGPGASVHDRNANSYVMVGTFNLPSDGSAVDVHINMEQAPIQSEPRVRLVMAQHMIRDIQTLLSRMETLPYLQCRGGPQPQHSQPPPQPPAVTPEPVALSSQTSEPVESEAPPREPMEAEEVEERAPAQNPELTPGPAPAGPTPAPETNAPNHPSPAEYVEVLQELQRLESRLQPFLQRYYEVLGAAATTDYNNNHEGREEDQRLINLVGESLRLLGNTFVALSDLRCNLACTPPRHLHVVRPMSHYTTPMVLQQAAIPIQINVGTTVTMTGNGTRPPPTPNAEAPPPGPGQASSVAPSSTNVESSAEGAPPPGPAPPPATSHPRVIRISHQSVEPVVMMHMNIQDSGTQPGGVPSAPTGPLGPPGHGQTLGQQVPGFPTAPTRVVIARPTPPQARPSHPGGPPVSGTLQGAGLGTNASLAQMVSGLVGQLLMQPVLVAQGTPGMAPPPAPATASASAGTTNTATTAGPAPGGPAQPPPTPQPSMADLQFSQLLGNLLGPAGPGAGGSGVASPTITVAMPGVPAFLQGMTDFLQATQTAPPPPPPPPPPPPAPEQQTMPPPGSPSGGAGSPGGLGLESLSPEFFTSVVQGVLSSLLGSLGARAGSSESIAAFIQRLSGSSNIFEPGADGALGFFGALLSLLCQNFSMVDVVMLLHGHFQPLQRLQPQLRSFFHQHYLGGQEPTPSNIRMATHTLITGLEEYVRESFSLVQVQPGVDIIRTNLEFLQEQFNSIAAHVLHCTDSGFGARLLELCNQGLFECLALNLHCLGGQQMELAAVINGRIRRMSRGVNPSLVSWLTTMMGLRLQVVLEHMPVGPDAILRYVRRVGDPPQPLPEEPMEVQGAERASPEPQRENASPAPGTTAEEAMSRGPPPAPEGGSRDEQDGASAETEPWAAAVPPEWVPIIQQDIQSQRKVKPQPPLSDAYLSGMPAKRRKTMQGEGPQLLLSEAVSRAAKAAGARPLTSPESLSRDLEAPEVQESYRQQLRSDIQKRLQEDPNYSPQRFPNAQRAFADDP

Columns and labels:
[1] = target: T1, USP19 (ubiquitin-specific protease 19), endogenous in HEK-293T (human (endogenous in HEK-293T)) (UniProt O94966); experiment: co-IP; endogenous proteins, HEK-293T lysates, immunoprecipitation with anti-USP19, immunoblot with anti-BAG6 or USP19; RIPA lysis buffer
T1 sequence: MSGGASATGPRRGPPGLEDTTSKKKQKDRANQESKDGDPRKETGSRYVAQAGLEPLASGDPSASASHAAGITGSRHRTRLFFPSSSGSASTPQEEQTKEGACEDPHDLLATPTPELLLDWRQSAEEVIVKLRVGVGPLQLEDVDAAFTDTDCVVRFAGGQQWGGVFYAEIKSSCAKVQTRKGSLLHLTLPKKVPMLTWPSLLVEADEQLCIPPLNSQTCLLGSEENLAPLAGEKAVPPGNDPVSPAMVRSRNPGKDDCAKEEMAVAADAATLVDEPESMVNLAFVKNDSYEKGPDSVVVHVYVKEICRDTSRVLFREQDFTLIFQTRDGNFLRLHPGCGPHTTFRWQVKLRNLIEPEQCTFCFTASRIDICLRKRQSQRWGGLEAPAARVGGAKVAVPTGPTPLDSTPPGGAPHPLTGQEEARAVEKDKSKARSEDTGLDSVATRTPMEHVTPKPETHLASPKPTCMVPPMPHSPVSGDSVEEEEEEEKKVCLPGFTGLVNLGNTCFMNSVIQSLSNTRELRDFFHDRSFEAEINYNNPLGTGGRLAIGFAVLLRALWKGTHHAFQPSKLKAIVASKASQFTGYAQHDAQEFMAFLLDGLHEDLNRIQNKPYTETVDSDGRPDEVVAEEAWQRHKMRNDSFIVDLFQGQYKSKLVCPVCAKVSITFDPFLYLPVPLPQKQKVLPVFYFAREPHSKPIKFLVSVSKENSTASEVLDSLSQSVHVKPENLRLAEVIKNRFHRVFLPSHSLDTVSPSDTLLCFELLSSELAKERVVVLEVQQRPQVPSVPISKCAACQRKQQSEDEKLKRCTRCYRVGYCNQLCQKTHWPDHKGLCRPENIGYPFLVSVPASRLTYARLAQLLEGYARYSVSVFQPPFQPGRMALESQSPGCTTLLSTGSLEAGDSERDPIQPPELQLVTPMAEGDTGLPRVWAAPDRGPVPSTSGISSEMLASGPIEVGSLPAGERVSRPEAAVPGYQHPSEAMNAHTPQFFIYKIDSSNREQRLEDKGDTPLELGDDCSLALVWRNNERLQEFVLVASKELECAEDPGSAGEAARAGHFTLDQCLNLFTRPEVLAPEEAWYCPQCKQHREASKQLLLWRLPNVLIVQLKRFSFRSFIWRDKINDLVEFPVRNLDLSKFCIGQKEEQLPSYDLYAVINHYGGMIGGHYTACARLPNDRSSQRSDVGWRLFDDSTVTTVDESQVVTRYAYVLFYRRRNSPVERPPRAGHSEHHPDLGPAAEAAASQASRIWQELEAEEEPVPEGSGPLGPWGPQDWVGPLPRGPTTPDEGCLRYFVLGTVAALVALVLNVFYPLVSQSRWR

[2] = target: T2, USP19 in MCF-10A cells (human (endogenous in MCF-10A)) (UniProt O94966); experiment: co-IP; MCF-10A cells, IP/WB of USP19 and BAG6
T2 sequence: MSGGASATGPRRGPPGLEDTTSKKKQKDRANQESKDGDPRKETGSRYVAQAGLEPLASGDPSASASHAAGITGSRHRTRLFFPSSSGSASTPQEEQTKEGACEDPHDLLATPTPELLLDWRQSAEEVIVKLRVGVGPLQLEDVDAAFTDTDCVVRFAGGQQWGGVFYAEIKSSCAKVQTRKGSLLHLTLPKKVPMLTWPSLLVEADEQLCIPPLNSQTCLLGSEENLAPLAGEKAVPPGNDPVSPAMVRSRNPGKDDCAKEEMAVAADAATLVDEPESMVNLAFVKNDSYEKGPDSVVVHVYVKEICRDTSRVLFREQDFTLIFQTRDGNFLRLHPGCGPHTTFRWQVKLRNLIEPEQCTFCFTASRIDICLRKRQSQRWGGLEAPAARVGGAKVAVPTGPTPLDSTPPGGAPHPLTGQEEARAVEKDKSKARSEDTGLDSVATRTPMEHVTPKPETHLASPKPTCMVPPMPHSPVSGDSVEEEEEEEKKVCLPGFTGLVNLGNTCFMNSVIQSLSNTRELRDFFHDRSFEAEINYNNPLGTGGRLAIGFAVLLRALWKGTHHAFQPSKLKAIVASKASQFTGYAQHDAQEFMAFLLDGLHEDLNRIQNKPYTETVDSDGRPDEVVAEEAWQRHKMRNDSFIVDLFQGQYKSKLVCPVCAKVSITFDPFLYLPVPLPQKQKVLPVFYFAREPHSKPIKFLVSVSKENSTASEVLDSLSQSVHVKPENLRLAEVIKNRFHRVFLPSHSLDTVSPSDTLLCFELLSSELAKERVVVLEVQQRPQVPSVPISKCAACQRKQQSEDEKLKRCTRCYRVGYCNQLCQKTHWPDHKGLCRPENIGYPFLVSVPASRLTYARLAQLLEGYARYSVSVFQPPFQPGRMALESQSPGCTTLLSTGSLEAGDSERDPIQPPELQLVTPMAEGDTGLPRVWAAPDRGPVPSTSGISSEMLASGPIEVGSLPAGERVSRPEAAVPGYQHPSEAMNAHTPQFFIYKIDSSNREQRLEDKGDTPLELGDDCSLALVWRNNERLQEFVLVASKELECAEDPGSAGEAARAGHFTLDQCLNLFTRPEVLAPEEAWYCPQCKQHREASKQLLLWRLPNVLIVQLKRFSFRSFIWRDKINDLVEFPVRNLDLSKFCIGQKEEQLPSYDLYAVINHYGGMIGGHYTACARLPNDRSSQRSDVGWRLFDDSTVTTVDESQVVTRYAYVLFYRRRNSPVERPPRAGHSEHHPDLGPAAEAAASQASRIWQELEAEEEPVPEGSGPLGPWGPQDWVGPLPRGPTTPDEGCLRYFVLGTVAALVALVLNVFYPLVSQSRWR

[3] = target: T3, USP19 in MDA-MB-231 cells (human (endogenous in MDA-MB-231)) (UniProt O94966); experiment: co-IP; MDA-MB-231 cells, IP/WB of USP19 and BAG6
T3 sequence: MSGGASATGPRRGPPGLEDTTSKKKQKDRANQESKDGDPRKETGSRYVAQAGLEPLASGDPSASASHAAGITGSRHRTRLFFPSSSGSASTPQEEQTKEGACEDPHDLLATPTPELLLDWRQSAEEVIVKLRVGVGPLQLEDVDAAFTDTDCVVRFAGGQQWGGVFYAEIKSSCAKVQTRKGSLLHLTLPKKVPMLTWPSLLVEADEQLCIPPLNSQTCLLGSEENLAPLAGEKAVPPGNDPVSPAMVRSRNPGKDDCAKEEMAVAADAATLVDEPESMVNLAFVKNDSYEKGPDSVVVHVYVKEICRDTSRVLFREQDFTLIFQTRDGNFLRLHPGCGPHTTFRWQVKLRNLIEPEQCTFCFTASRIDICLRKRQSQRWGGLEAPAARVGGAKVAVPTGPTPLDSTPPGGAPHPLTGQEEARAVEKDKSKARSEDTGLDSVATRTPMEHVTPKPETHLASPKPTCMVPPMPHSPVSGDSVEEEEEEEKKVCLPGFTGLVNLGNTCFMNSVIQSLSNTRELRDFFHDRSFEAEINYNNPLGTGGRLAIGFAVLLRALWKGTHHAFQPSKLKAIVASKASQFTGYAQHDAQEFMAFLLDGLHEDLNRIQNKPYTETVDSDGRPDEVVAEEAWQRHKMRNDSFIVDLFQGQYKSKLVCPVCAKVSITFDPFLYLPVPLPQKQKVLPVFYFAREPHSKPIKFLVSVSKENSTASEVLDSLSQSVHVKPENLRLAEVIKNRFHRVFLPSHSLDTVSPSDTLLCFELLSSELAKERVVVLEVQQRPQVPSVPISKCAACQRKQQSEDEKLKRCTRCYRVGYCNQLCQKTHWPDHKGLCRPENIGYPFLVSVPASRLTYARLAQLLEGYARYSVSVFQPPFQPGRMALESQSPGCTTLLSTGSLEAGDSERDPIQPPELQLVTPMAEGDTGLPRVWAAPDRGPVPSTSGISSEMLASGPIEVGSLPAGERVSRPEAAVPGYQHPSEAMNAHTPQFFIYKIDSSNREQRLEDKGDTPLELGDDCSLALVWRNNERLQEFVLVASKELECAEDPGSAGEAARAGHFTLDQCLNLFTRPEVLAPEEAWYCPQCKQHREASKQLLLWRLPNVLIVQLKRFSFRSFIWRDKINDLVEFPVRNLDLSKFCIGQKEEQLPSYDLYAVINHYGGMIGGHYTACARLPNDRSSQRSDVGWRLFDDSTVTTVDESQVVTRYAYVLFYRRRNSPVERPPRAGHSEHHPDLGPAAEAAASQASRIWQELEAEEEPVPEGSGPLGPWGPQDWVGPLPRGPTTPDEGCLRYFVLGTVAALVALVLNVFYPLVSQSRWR

[4] = target: BCL2 (B-cell lymphoma 2), endogenous in MDA-MB-231 (human (endogenous in MDA-MB-231)) (UniProt P10415); experiment: co-IP; MDA-MB-231 lysates, immunoprecipitation with anti-BAG6 and reverse co-IP of BCL2, immunoblot with anti-BCL2 or BAG6 (Figure 6B; endogenous by the legend)
[5] = target: BAG6, endogenous in MDA-MB-231 cells (human (endogenous in MDA-MB-231)) (UniProt P46379); experiment: as above
[6] = target: T1, USP19 (ubiquitin-specific protease 19), endogenous in HEK-293T (human (endogenous in HEK-293T)); experiment: co-IP; HEK-293T, ectopically expressed BAG6; USP19 immune complex and reverse BAG6 immune complex, IP-Western blot (Figure 3H)
[7] = target: Flag-tagged BAG6 (in MDA-MB-231) (UniProt P46379); experiment: co-IP; MDA-MB-231 co-transfected with Flag-BAG6 and His-BCL2 plasmids; immunoprecipitation with anti-BAG6, immunoblot with anti-BCL2 or BAG6
[8] = target: Flag-tagged BAG6 (in HEK-293T) (UniProt P46379); experiment: co-IP; HEK-293T, ectopically expressed BAG6; USP19 immune complex and reverse BAG6 immune complex, IP-Western blot (Figure 3H)

- binding [1]: binds
Molecule: BAG6 (BAG family molecular chaperone regulator 6), endogenous in HEK-293T (from UniProt P46379 1-1132)

- binding [2]: binds
Molecule: BAG6 in MCF-10A cells (from UniProt P46379 1-1132)

- binding [3]: binds
- binding [4]: binds
Molecule: BAG6, endogenous in MDA-MB-231 cells (from UniProt P46379 1-1132)

- binding [5]: binds
Molecule: BCL2 (B-cell lymphoma 2), endogenous in MDA-MB-231 (from UniProt P10415 1-239)

- binding [6]: binds
Molecule: Flag-tagged BAG6 (in HEK-293T) (from UniProt P46379 1-1132)

- binding [7]: binds
Molecule: His-BCL2 (from UniProt P10415 1-239)

- binding [8]: binds
B1: USP19 (ubiquitin-specific protease 19), endogenous in HEK-293T (enzyme, UniProt O94966 1-1318)
chain: MSGGASATGPRRGPPGLEDTTSKKKQKDRANQESKDGDPRKETGSRYVAQAGLEPLASGDPSASASHAAGITGSRHRTRLFFPSSSGSASTPQEEQTKEGACEDPHDLLATPTPELLLDWRQSAEEVIVKLRVGVGPLQLEDVDAAFTDTDCVVRFAGGQQWGGVFYAEIKSSCAKVQTRKGSLLHLTLPKKVPMLTWPSLLVEADEQLCIPPLNSQTCLLGSEENLAPLAGEKAVPPGNDPVSPAMVRSRNPGKDDCAKEEMAVAADAATLVDEPESMVNLAFVKNDSYEKGPDSVVVHVYVKEICRDTSRVLFREQDFTLIFQTRDGNFLRLHPGCGPHTTFRWQVKLRNLIEPEQCTFCFTASRIDICLRKRQSQRWGGLEAPAARVGGAKVAVPTGPTPLDSTPPGGAPHPLTGQEEARAVEKDKSKARSEDTGLDSVATRTPMEHVTPKPETHLASPKPTCMVPPMPHSPVSGDSVEEEEEEEKKVCLPGFTGLVNLGNTCFMNSVIQSLSNTRELRDFFHDRSFEAEINYNNPLGTGGRLAIGFAVLLRALWKGTHHAFQPSKLKAIVASKASQFTGYAQHDAQEFMAFLLDGLHEDLNRIQNKPYTETVDSDGRPDEVVAEEAWQRHKMRNDSFIVDLFQGQYKSKLVCPVCAKVSITFDPFLYLPVPLPQKQKVLPVFYFAREPHSKPIKFLVSVSKENSTASEVLDSLSQSVHVKPENLRLAEVIKNRFHRVFLPSHSLDTVSPSDTLLCFELLSSELAKERVVVLEVQQRPQVPSVPISKCAACQRKQQSEDEKLKRCTRCYRVGYCNQLCQKTHWPDHKGLCRPENIGYPFLVSVPASRLTYARLAQLLEGYARYSVSVFQPPFQPGRMALESQSPGCTTLLSTGSLEAGDSERDPIQPPELQLVTPMAEGDTGLPRVWAAPDRGPVPSTSGISSEMLASGPIEVGSLPAGERVSRPEAAVPGYQHPSEAMNAHTPQFFIYKIDSSNREQRLEDKGDTPLELGDDCSLALVWRNNERLQEFVLVASKELECAEDPGSAGEAARAGHFTLDQCLNLFTRPEVLAPEEAWYCPQCKQHREASKQLLLWRLPNVLIVQLKRFSFRSFIWRDKINDLVEFPVRNLDLSKFCIGQKEEQLPSYDLYAVINHYGGMIGGHYTACARLPNDRSSQRSDVGWRLFDDSTVTTVDESQVVTRYAYVLFYRRRNSPVERPPRAGHSEHHPDLGPAAEAAASQASRIWQELEAEEEPVPEGSGPLGPWGPQDWVGPLPRGPTTPDEGCLRYFVLGTVAALVALVLNVFYPLVSQSRWR
